Assay results taken from patent publication US20210087294A1 (University of Pennsylvania, published 2021).
These are yes or no findings as the source states them, for the method shown. Binding can be weak; no strength is given.

Tests used:
[1] = target: canine fibroblast activation protein (FAP) (canine); test: flow cytometry on canine FAP-transgene MC KOSA cells, canine primary fibroblasts and SK KOSA cells
[2] = target: canine fibroblast activation protein (FAP) (canine); test: flow cytometry (FACS) with hybridoma supernatant on MC KOSA.K9FAP vs MC KOSA parental cells, canine primary fibroblasts and SK KOSA cells; AF488 goat anti-mouse IgG secondary

B1: 4G5 anti-canine FAP antibody (antibody, V domains shown)
VH: QVQLQQPGAELVKPGASVKLSCKASGYTITSYSLHWVKQRPGQGLEWIGEINPANGDHNFSEKFEIKATLTVDSSSNTAFMQLSRLTSEDSAVYYCTRLDDSRFHWYFDVWGAGTTVTVSS
VL: QIVLTQSPALMSASPGEKVTMTCTASSSVSYMYWYQQKPRSSPKPWIFLTSNLASGVPARFSGRGSGTSFSLTISSMEAEDAATYYCQQWSGYPPITFGSGTKLEIK
notes: Mouse hybridoma monoclonal antibody, tested as hybridoma supernatant or immunoglobulin; also called clone 4G5; 4G5 immunoglobulin
In the case of B1, the binding [1] is reported as “binds” and the binding [2] is reported as “binds”.
